# Laboratory results reported in PubChem BioAssay AID248 (DTP/NCI, 2004).
# The list shows only some results of the screen, not a fair sample: it is rich in T/C values a quarter to a half above the control, in often repeated tests (any T/C) and in doses without a T/C. Further doses and runs are listed elsewhere. T/C: endpoint of the treated group in % of that of the vehicle group. Some doses have a count of surviving animals in place of a T/C: the source holds a T/C of zero for them, seemingly a mark for toxic or unscored doses. Some survivor counts are full or nearly so, which does not show that the dose was tolerated: the source hardly ever lists a survival T/C far under the control, and the zero likely stands for such cases as well. Counts of survivors are from the toxicity check (mostly the fifth day) where no day follows; animals may have died later. Schedules are NCI's codes, taken here to give the interval after Q, in days (D) or hours (H), and the number of doses after X. For survival time, this PubChem deposit counts one and a half times the control or more as active, and values a quarter to a half above the control carry no call in these data; other NCI protocols may use other cut-offs. Some T/C values are followed by the survivors on the day toxicity was checked, most often the fifth; without a count, all were alive then.
# System: L1210 leukemia ip in BDF1 mice, survival T/C
# Assay: NCI In Vivo Anticancer Drug Screen. Data for tumor model L1210 Leukemia (intraperitoneal) in B6D2F1 (BDF1) mice
# Details: T/C endpoint: mean survival time, higher T/C = longer survival
# [1] = dose: 100.0 mg/kg/injection, schedule: Q01DX009 (ip), vehicle: saline
# [2] = dose: 50.0 mg/kg/injection, schedule: Q01DX009 (ip), vehicle: saline with Tween-80
# [3] = dose: 200.0 mg/kg/injection, schedule: Q01DX009 (ip), vehicle: saline with Tween-80
# [4] = dose: 200.0 mg/kg/injection, schedule: Q04DX003 (ip), vehicle: saline with Tween-80
# [5] = dose: 400.0 mg/kg/injection, schedule: Q04DX003 (ip), vehicle: saline with Tween-80
# [6] = dose: 200.0 mg/kg/injection, schedule: Q01DX009 (ip), vehicle: Klucel (hydroxypropylcellulose) (HPC)
# [7] = dose: 400.0 mg/kg/injection, schedule: Q01DX009 (ip), vehicle: Klucel (hydroxypropylcellulose) (HPC)
compound,measurement,setting,value
CCN(CC)c1ccc2nc3ccc(N(CC)CC)cc3[n+](-c3ccccc3)c2c1,survivor count,"dose: 12.0 mg/kg/injection, schedule: Q01DX009 (ip), vehicle: saline",0 of 6
same,survivor count,"dose: 12.5 mg/kg/injection, schedule: Q01DX009 (ip), vehicle: saline",6 of 6
same,survivor count,"dose: 25.0 mg/kg/injection, schedule: Q01DX009 (ip), vehicle: saline",0 of 6
same,survivor count,"dose: 50.0 mg/kg/injection, schedule: Q01DX009 (ip), vehicle: saline",0 of 6
same,survivor count,[1],0 of 6
same,survivor count,"dose: 200.0 mg/kg/injection, schedule: Q01DX009 (ip), vehicle: saline",0 of 6
same,survivor count,"dose: 400.0 mg/kg/injection, schedule: Q01DX009 (ip), vehicle: saline",0 of 6
CCCCNC(=O)c1ccccc1N,survivor count,"dose: 200.0 mg/kg/injection, schedule: Q04DX003 (ip), vehicle: other",3 of 3
Cc1cc(S(=O)(=O)F)ccc1NC(=O)CCc1ccc(N2C(N)=NC(N)=NC2(C)C)cc1,survivor count,"dose: 400.0 mg/kg/injection, schedule: Q01DX001 (ip), vehicle: Klucel (hydroxypropylcellulose) (HPC)",3 of 6
O=C1NC(c2ccccc2)(c2ccccc2)C(=O)N1CCN(CCCl)CCCl,survivor count,[2],5 of 6
same,survivor count,[3],5 of 6
same,T/C,[4],125 % of control
same,survivor count,[4],6 of 6
same,survivor count,"dose: 400.0 mg/kg/injection, schedule: Q01DX009 (ip), vehicle: saline with Tween-80",0 of 6
same,T/C,[5],134 % of control [4 of 6 alive]
same,survivor count,[5],5 of 6
O=C(Nc1cccc(F)c1)Nc1cc([N+](=O)[O-])ccc1Cl,survivor count,[6],6 of 6
O=C1CCNc2cc(Cl)ccc21,survivor count,[7],6 of 6
CN(C)c1ncnc2c1ncn2C1CCC(CO)C1 (stereo not drawn),survivor count,"dose: 400.0 mg/kg/injection, schedule: Q01DX001 (ip), vehicle: carboxymethylcellulose (CMC)",2 of 4
Cc1c(Cl)cccc1CC(Cl)C#N (stereo not drawn),survivor count,[2],3 of 3
same,survivor count,[3],1 of 3
COc1cc2c(cc1O)C(CCc1cc(OC)c(OC)c(OC)c1)=[N+](C)CC2,survivor count,"dose: 100.0 mg/kg/injection, schedule: Q04DX002 (ip), vehicle: Klucel (hydroxypropylcellulose) (HPC)",2 of 3
same,survivor count,"dose: 200.0 mg/kg/injection, schedule: Q04DX002 (ip), vehicle: Klucel (hydroxypropylcellulose) (HPC)",0 of 3
same,survivor count,"dose: 400.0 mg/kg/injection, schedule: Q04DX002 (ip), vehicle: Klucel (hydroxypropylcellulose) (HPC)",0 of 3
O=C(Nc1ccc(O)cc1)Sc1ccccc1,survivor count,"dose: 150.0 mg/kg/injection, schedule: Q01DX001 (ip), vehicle: gum acacia",2 of 6
same,survivor count,"dose: 300.0 mg/kg/injection, schedule: Q01DX001 (ip), vehicle: gum acacia",0 of 6
CCCCOP(=O)(Cc1cc(C)cc(C)c1)OCCCC,survivor count,[5],1 of 6
C/C=C1\C(=O)O[C@@]23C=C[C@H]4C(C(=O)OC)=CO[C@@H](O[C@H]12)[C@H]43,survivor count,"dose: 80.0 mg/kg/injection, schedule: Q01DX001 (ip), vehicle: saline",3 of 6
COc1ccc2c3c1O[C@H]1C(O)C=C[C@H]4[C@@H](C2)N(C)CC[C@]314 (stereo partly drawn),survivor count,"dose: 400.0 mg/kg/injection, schedule: Q01DX001 (ip), vehicle: saline",0 of 6
CC(C)(C)C1CCC(NC(=O)CCl)CC1 (stereo not drawn),survivor count,[6],5 of 6
C#CCOCCCC(=C)C,survivor count,[1],0 of 6
NC(=O)c1c(/N=C/c2cc(Br)ccc2O)sc2c1CCCC2,survivor count,"dose: 100.0 mg/kg/injection, schedule: Q04DX002 (ip), vehicle: saline with Tween-80",3 of 3
same,survivor count,"dose: 200.0 mg/kg/injection, schedule: Q04DX002 (ip), vehicle: saline with Tween-80",3 of 3
ClCCCCCCCCCCCl,T/C,[7],131 % of control
O=Cc1cn(C2CC(O)C(CO)O2)c(=O)[nH]c1=O (stereo not drawn),T/C,"dose: 100.0 mg/kg/injection, schedule: Q01DX005 (ip), vehicle: saline",130 % of control
same,T/C,"dose: 100.0 mg/kg/injection, schedule: Q01DX009 (ip), vehicle: Klucel (hydroxypropylcellulose) (HPC)",130 % of control
same,T/C,"dose: 200.0 mg/kg/injection, schedule: Q01DX005 (ip), vehicle: saline",128 % of control
same,T/C,[6],129 % of control [5 of 6 alive]
